According to PubChem BioAssay AID743266 (National Center for Advancing Translational Sciences (NCATS), 2014):
Hit rate of the full screen: of about 410,000 compounds, about 310 (0.076%) were called active. Inconclusive means that the source gave no clear call. Such entries were picked first, then a sample of the others. The call rests on the fitted dose curve; in most records, active means well fitted activation curve with a large enough effect; inconclusive means small, poorly fitted or top-dose-only effect, or another doubt; inactive means no such curve, though single readings can be large or run the other way. Potencies beside an inconclusive call are fits to weak or partial responses and may not hold up.

Chains of the proteins cited; added tags and fusions are not shown. Lines headed by an entry give the natural chain unless they say otherwise; changes in a name come on top.
UniProt Q03431: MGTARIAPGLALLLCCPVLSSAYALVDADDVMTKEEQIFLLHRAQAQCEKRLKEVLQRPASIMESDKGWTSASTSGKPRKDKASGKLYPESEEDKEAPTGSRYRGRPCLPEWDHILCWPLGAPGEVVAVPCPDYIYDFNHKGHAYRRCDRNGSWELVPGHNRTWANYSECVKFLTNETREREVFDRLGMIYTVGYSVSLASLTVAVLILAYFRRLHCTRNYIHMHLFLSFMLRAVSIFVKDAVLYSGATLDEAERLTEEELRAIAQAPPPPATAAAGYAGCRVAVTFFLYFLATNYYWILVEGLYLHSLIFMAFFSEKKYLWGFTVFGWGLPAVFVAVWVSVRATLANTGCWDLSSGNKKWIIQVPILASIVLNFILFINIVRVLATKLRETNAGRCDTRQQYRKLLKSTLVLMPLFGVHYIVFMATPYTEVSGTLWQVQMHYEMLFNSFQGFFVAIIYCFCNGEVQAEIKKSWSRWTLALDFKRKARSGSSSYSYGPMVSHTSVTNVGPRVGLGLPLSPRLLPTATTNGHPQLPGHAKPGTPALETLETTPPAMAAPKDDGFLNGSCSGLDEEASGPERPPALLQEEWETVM

target: Parathyroid hormone/parathyroid hormone-related peptide receptor (Homo sapiens) (UniProt Q03431); test: qHTS for PTHR1 Agonists: Primary Screen; conditions: HEK293 GP2 PTHR1 cells, GloSensor cAMP luminescence, 1 h; activation: at 115 µM (top of the series) unless noted; series mostly up to 115 µM; further: nearly all actives have a fitted effect of over 55% in size
Procedure, shortened: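 HEK-293-derived GP2 cells expressing PTHR1 and a GloSensor cAMP reporter, 3,000/well, plated overnight, given luciferin plus IBMX (each 0.5 mM as added) for 1 h at 37 °C, then compound for 1 h at 37 °C. Luminescence was read after 15 min at room temperature.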
Potency means the concentration at half of the fitted maximal effect.

Potency, inactive:
NNc1nc2ccccc2nc1C(F)(F)F, O=C(Nc1c(F)cc(F)cc1Br)c1cc(S(=O)(=O)N2CCN(c3ccccn3)CC2)ccc1F, CN(C)CCN1CCN(C(c2cc3ccccc3o2)c2nnnn2C(C)(C)C)CC1 (configuration not stated), O=C(CSc1cccc[n+]1[O-])c1cc2ccccc2o1, O=C(N/N=C/C1=C(N2CCOCC2)C(=C\c2ccccc2)/CC1)Nc1ccccc1, Cc1ccc(C)n1CCN1CCN(C(=O)c2ccc(Cl)cc2)CC1, CC(C)(C)OC(=O)C[C@@H]1C/C=C\C[C@@H](CC(=O)N(CCO)Cc2ccccc2)C(=O)NCCOC1=O, Cc1ccc(Cc2c(-c3ccco3)nc3ccc(Br)cn23)cc1, COC(=O)c1ccc2c(c1)C(C)(C)C(/C=C/c1ccc(OC)c(OC)c1OC)=[N+]2C, CCOc1cnn(-c2cc(Oc3ccc(C)cc3)ncn2)c(=O)c1Cl, CC(C)c1nc2sc3c(=O)[nH]cnc3c2c2c1CCCC2, Oc1cccc(-n2nnnc2SCc2ccccc2F)c1

Potency, inconclusive:
COc1ccc(Oc2ccc3c(C(F)(F)F)cc(C(F)(F)F)nc3n2)cc1 25.1 µM [activator, partial curve], CCOc1ccc2[nH]c3c(N4CCN(c5ccccn5)CC4)ncnc3c2c1 17.8 µM [activator, partial curve, poor fit], O=C(/C=C/c1cccc([N+](=O)[O-])c1)Nn1c(-c2ccccc2F)nc2ccccc2c1=O 50.1 µM [activator, partial curve, poor fit], COc1ccc(CNC(=O)CCCCCn2c(SCC#N)nc3cc4c(cc3c2=O)OCO4)cc1 39.8 µM [activator, single point], CCC(CC)C(=O)NCc1ccc2c(c1)cc(C)n2C 15.8 µM [activator, partial curve, poor fit], CC1CCC2(CC1)NC(=O)N(CC(=O)Nc1ccc(F)cc1)C2=O (configuration not stated) 20 µM [activator, full curve], Cn1cnc2c(=O)oc3ccc(S(=O)(=O)N4CCN(c5ccccc5)CC4)cc3c21 141 µM [activator, single point], N#Cc1ccc(C(=O)CSc2n[nH]c(=O)n2-c2cccnc2)cc1 251 µM [activator, partial curve, poor fit], CCOC(=O)C1CCN(C(=O)CSc2n[nH]c(-c3ccccc3Cl)n2)CC1 89.1 µM [activator, single point], CC(C)CNc1ncnc2c1ncn2[C@H]1CN(Cc2ccc(C(=O)O)cc2)C[C@@H](CO)O1 7.94 µM [activator, partial curve], Cc1cccc(NC(=O)c2nc[nH]c2C(=O)NC2CCN(C(=O)OC(C)(C)C)CC2)c1 0.767 µM [activator, full curve, poor fit], Brc1ccc(CNCCCSc2ncccn2)cc1 50.1 µM [activator, partial curve, poor fit], CCN(CC)CCNC(=O)c1ccc2c(c1)NC(=O)C(CS(=O)(=O)Cc1ccc(F)cc1Cl)N2 (configuration not stated) 126 µM [activator, single point], Cc1ccc(N2CC(C(=O)N/N=C/c3cccc([N+](=O)[O-])c3)CC2=O)cc1 (configuration not stated) 31.6 µM [activator, single point], CCOC(=O)c1ccc(Nc2nc(N)c3cc(OC)c(OC)cc3n2)cc1 112 µM [activator, partial curve, poor fit], CC(Sc1nc(-c2ccco2)nc2c1c(=O)n(C)c(=O)n2C)C(=O)O (configuration not stated) 44.7 µM [activator, partial curve, poor fit], CC1=C(CC(=O)O)c2cc(F)ccc2/C1=C/c1ccc(S(C)=O)cc1 (configuration not stated) 126 µM [activator, single point], Cc1c(NC(=O)COC(=O)/C=C/c2ccc(Cl)cc2)c(=O)n(-c2ccccc2)n1C 141 µM [activator, single point], CCC(C)NC(=O)CN1C(=O)c2cccnc2Sc2ccccc21 (configuration not stated) 112 µM [activator, single point], O=S(=O)(c1ccccc1)N1CCN(C2CCN(Cc3ccccc3)CC2)CC1 100 µM [activator, single point], CC1(C)CC(=O)C(C=Nc2ccc(NC3=C(C#N)C(=O)CC(C)(C)C3)cc2)=C(O)C1 79.4 µM [activator, partial curve, poor fit], CN(CC(=O)N1CCCC1)S(=O)(=O)c1ccc2ccccc2c1 56.2 µM [activator, partial curve, poor fit], CCN(CC(=O)NCc1ccc(Cl)cc1)C(=O)CSc1ccccc1F 25.1 µM [activator, single point], CC1CCN(C(=O)Cn2c(=O)c3cccn3c3ccccc32)CC1 50.1 µM [activator, partial curve, poor fit], Cc1ccc(/C=C2/NC(=O)[C@H](C)NC2=O)cc1 141 µM [activator, single point]

activation, inconclusive:
CC(=O)N/N=C(/C)c1ccc(NC(=O)c2csc(C)c2C)cc1 -3.01% [activator], CCc1nc2ccc(C(=O)Nc3cc(-c4ccccc4)ccc3OC)cn2c1N(C)CCCc1ccccc1 36.4% [activator], COc1ccc(-n2c(Cc3cccn3C)nnc2SCC(=O)Nc2cccc(NC(C)=O)c2)cc1 83.5% [activator] [at 57.5 µM], CC1=NN(c2ccc(C(=O)O)cc2)C(=O)CC1 31.1% [activator], Cc1occc1C(=O)Nc1ccccc1C#N 85.7% [activator]
